Measurements: publication PMC12441119
These are yes or no findings as the source states them, for the method shown. Some binding calls cover weakened binding; strength is not graded here.

Amino acid sequences for entries named in this document (tags omitted). Residues count along the entry.
HOIP (residues 697–1072) (Q96EP0, residues 697-1072): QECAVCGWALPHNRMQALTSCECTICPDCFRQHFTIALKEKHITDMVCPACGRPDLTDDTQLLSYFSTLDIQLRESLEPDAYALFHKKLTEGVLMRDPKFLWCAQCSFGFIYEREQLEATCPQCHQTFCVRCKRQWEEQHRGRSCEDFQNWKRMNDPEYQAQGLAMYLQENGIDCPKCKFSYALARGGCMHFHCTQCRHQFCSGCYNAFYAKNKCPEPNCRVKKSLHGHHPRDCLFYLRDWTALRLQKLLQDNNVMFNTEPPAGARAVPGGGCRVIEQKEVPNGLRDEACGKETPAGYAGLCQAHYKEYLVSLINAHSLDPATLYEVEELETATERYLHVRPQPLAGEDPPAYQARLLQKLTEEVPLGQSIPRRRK
HOIP (residues 697–852) (Q96EP0, residues 697-852): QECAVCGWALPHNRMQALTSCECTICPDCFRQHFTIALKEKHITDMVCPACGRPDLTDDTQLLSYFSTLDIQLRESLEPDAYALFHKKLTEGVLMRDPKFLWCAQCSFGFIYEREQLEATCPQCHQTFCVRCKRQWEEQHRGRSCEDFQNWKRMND
HOIP (residues 854–1072) (Q96EP0, residues 854-1072): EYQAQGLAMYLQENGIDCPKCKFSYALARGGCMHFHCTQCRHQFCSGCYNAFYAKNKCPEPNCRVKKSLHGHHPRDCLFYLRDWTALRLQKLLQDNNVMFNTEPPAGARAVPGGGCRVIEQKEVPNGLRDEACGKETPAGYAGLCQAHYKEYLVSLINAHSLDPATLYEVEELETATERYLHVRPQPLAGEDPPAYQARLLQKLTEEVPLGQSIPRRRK

How the values were obtained:
HOIP (residues 854–1072) = HOIP (residues 854–1072) (UniProt Q96EP0); assay: AUC; sedimentation velocity, 42,000 rpm, 20 °C, c(s) distribution (SEDFIT); mixtures of HOIP RING2-LDD with STK4 KD at molar ratios 1:1 or 1:5; both purified
HOIP (residues 697–1072) = HOIP (residues 697–1072) (UniProt Q96EP0); assay: SEC; each protein alone and the mixture at matched concentrations on Superdex 200 Increase 10/300 GL or Superdex 75 Increase 10/300 GL; a forward shift or increase of the peak read qualitatively; fractions on SDS-PAGE (Fig. 1c: 20 μM HOIP RING2-LDD, 30 μM STK4 KD, Superdex 75 Increase); both purified
HOIP (residues 697–852) = HOIP (residues 697–852) (UniProt Q96EP0); assay: as above

B1: STK4 (residues 11–326) K59R (domain or fragment, UniProt Q13043 11-326)
chain: RRQLKKLDEDSLTKQPEEVFDVLEKLGEGSYGSVYKAIHKETGQIVAIRQVPVESDLQEIIKEISIMQQCDSPHVVKYYGSYFKNTDLWIVMEYCGAGSVSDIIRLRNKTLTEDEIATILQSTLKGLEYLHFMRKIHRDIKAGNILLNTEGHAKLADFGVAGQLTDTMAKRNTVIGTPFWMAPEVIQEIGYNCVADIWSLGITAIEMAEGKPPYADIHPMRAIFMIPTNPPPTFRKPELWSDNFTDFVKQCLVKSPEQRATATQLLQHPFVRSAKGVSILRDLINEAMDVKLKRQESQQREVDQDDEENSEEDEMD
HOIP (residues 854–1072)
  binding: binds weakly

## YEFLKSWTVEDLQKRLLALDPMMEQEIEEIRQKYQSKRQPILDAIEAK (domain or fragment, UniProt Q13043 433-480) [STK4 SARAH domain]
HOIP (residues 697–1072)
  binding: no binding

B2: STK4 (residues 1–326) K59R (domain or fragment, UniProt Q13043 1-326)
chain: METVQLRNPPRRQLKKLDEDSLTKQPEEVFDVLEKLGEGSYGSVYKAIHKETGQIVAIRQVPVESDLQEIIKEISIMQQCDSPHVVKYYGSYFKNTDLWIVMEYCGAGSVSDIIRLRNKTLTEDEIATILQSTLKGLEYLHFMRKIHRDIKAGNILLNTEGHAKLADFGVAGQLTDTMAKRNTVIGTPFWMAPEVIQEIGYNCVADIWSLGITAIEMAEGKPPYADIHPMRAIFMIPTNPPPTFRKPELWSDNFTDFVKQCLVKSPEQRATATQLLQHPFVRSAKGVSILRDLINEAMDVKLKRQESQQREVDQDDEENSEEDEMD
HOIP (residues 697–852)
  binding: no binding
